This is one part of the list.
Compound: CC1Cc2ccccc2N1C(=O)C1CCCN(C1)C(=O)CCl (mixture of isomers) [TRIM25 ligand 11 (diastereomer mixture)]
Experiment: probe-labelled cysteine peptide fold change vs DMSO (competition) (log2 fold change); higher = less target engagement (more negative = stronger competition)
Conditions: THP-1, incubation time: 4 h
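Note: competitive chemoproteomic profiling in live THP-1 cells with an iodoacetamide desthiobiotin (IA-DTB) probe, comparing probe-labelled peptide intensities in compound-treated cells against DMSO-treated controls.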

The chains behind the UniProt entries cited, without tags or fusion partners. Where a name states a change or a piece, a line headed by the entry shows the natural chain unless it says otherwise.
UniProt Q7Z6Z7, whole entry, looked up: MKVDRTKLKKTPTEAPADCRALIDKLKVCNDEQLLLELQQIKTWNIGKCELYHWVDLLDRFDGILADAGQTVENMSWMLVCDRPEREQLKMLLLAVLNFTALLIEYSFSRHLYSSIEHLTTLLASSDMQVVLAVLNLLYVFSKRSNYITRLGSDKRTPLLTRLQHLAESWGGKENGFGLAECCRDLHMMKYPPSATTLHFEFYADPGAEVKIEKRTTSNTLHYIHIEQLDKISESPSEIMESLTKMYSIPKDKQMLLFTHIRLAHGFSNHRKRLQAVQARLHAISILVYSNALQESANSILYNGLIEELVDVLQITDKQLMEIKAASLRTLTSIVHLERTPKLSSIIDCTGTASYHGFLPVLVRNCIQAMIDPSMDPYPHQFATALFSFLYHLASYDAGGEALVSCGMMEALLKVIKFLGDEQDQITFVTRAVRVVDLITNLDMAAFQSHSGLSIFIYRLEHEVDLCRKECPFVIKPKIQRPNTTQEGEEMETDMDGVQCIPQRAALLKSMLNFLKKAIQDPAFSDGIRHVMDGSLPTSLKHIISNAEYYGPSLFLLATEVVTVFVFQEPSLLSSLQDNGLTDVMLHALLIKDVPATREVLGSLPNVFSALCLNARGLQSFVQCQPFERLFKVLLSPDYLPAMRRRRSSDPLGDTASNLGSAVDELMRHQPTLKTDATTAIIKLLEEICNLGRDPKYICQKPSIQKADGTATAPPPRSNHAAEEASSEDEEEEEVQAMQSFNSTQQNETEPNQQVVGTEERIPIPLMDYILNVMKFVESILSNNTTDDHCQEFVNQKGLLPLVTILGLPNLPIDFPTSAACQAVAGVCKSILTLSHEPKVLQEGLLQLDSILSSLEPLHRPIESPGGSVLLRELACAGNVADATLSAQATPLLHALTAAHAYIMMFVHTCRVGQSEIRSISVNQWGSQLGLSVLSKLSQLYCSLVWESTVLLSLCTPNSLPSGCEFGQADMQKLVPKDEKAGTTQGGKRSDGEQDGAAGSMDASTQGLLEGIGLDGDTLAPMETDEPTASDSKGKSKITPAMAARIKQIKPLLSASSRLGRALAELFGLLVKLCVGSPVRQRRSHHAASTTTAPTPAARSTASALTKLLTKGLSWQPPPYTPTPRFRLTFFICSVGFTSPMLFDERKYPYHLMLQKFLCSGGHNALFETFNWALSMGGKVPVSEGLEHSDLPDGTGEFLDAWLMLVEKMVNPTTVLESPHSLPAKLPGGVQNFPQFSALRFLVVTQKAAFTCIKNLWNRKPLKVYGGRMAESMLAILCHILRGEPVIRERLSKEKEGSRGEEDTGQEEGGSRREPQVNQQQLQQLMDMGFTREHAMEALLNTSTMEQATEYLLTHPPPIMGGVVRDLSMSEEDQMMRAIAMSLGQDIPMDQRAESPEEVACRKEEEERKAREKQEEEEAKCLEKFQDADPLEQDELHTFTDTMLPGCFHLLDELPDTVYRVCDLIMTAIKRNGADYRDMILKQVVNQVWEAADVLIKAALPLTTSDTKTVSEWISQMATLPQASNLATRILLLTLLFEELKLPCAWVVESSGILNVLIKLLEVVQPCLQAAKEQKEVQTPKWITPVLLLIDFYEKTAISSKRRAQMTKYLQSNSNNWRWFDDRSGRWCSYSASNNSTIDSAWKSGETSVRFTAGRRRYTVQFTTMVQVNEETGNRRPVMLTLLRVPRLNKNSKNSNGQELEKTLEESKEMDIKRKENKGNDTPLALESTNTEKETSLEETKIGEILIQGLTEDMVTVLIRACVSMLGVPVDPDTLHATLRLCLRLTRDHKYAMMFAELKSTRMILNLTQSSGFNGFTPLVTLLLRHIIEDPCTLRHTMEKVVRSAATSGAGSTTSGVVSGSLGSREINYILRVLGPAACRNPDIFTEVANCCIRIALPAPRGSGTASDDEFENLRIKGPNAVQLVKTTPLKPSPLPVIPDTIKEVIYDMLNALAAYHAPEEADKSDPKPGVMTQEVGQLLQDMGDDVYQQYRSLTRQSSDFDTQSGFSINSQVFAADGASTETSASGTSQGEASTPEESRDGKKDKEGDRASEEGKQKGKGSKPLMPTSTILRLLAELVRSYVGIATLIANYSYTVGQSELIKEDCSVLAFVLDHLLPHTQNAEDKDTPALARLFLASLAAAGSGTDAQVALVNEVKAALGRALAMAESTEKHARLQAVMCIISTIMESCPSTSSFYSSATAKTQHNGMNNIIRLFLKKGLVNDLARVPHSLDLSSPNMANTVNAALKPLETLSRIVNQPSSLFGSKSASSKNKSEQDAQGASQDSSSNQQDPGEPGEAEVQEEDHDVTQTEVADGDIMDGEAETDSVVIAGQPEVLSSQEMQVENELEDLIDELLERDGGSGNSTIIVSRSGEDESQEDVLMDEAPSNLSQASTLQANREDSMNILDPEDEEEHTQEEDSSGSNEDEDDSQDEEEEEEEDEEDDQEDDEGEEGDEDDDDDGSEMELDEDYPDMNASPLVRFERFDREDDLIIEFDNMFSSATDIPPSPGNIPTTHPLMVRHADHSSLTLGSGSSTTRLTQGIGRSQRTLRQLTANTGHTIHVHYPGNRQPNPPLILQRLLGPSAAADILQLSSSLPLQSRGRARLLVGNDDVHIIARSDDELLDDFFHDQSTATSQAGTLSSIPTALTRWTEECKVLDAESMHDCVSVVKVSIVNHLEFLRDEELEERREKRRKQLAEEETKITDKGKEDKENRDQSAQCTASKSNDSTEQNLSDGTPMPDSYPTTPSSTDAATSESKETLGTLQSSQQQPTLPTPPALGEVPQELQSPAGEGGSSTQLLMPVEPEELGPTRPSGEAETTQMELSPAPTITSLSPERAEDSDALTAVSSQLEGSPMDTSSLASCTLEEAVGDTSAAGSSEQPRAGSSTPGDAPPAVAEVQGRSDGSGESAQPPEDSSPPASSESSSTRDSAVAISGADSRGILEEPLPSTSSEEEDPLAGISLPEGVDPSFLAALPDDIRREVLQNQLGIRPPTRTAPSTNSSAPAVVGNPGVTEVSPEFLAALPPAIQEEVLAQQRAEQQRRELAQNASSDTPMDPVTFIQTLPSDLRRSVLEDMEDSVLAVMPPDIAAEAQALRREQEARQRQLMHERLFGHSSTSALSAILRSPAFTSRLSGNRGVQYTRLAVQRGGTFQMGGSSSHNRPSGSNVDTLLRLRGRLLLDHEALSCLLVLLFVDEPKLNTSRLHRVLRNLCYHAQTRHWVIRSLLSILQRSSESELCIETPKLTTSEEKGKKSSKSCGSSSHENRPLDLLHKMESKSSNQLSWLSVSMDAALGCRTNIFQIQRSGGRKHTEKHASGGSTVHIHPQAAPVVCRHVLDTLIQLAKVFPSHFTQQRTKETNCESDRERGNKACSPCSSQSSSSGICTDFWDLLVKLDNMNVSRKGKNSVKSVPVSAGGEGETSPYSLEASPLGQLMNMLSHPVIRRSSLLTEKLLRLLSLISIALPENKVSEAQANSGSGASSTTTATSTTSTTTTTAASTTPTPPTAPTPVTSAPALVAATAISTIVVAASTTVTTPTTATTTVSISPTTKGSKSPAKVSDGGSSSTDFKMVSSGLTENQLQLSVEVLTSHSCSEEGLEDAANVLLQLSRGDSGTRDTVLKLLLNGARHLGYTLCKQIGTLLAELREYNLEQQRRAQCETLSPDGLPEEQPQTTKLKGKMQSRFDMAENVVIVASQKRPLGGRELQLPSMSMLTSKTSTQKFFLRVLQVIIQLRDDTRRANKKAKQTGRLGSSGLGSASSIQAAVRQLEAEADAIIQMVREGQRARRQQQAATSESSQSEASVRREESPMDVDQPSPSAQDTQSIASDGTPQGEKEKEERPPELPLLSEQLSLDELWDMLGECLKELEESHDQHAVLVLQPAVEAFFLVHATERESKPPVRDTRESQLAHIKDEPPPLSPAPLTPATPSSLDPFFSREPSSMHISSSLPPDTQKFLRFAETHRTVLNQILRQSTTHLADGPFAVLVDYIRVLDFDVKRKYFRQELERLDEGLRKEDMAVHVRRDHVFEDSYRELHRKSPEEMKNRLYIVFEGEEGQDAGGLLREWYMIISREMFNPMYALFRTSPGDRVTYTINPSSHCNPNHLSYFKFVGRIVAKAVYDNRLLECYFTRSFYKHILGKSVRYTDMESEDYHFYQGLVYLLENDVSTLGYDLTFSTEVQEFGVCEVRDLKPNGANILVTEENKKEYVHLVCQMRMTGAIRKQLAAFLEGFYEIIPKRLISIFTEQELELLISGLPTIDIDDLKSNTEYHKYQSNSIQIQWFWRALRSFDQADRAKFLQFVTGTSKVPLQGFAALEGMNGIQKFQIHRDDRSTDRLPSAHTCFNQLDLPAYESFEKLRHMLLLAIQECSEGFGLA
UniProt Q13418: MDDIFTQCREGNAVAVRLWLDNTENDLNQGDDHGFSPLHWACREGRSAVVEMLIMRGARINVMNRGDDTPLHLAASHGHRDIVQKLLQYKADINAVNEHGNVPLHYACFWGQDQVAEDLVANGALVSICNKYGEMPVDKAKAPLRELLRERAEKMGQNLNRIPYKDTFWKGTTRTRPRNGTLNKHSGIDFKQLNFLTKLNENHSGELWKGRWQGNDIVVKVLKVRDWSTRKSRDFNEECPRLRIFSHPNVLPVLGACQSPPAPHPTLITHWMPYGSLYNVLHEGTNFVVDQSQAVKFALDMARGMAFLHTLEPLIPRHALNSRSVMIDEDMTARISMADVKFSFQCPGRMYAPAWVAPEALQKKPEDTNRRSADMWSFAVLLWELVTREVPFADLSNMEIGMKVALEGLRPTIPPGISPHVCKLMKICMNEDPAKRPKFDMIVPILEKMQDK
UniProt Q16666: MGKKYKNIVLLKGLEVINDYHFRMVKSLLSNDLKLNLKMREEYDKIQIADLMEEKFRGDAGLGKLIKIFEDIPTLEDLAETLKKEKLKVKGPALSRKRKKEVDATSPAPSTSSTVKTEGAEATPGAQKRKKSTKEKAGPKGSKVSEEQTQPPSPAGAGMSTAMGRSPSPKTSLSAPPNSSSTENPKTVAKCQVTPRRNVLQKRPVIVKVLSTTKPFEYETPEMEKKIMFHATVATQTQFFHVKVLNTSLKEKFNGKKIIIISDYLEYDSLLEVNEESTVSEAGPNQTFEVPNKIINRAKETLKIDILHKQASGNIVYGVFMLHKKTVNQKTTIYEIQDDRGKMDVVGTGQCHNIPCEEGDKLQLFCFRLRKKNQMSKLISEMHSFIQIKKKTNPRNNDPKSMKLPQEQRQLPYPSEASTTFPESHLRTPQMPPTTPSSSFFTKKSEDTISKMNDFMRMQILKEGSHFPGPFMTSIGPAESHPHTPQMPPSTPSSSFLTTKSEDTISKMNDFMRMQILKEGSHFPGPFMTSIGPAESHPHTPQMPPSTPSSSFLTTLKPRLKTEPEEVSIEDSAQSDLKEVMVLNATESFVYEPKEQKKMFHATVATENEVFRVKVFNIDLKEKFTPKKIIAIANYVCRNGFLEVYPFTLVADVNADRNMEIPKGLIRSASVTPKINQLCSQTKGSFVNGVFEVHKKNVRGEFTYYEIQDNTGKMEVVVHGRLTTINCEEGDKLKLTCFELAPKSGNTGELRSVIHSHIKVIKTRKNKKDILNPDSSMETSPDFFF
UniProt O14732: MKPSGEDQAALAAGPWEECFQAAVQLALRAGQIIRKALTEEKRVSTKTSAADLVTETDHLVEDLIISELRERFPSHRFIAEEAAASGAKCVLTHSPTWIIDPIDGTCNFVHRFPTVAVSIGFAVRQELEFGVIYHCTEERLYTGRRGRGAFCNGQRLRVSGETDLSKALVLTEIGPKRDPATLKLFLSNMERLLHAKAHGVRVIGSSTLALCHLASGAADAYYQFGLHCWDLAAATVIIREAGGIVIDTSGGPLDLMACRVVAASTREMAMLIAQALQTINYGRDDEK
UniProt Q9Y6K9, whole entry, looked up: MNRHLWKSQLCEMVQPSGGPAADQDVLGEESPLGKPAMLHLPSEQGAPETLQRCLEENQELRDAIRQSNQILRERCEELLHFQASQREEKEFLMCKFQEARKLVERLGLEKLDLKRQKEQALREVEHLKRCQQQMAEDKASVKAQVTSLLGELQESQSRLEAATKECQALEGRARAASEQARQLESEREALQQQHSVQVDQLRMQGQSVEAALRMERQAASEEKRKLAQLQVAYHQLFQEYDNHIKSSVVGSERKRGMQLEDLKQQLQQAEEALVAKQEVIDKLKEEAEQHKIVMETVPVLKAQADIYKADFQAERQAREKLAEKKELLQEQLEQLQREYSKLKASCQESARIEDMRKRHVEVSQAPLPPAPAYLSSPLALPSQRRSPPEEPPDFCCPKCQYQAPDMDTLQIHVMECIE
UniProt Q5T013: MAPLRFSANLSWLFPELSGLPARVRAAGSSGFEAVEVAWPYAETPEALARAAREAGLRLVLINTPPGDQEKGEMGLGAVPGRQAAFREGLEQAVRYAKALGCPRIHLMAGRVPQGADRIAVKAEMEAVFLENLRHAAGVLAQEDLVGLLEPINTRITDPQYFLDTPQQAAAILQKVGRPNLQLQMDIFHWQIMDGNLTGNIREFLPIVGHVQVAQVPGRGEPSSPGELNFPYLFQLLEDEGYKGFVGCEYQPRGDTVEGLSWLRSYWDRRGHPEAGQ

| Target | probe-labelled cysteine peptide fold change (10 µM) | probe-labelled cysteine peptide fold change (50 µM) |
| --- | --- | --- |
| HUWE1_Q7Z6Z7_1252_AAFTCIK (UniProt Q7Z6Z7) | -0.109 | 0.197 |
| INO80_Q9ULG1_1026_VTAVPLDSYCNDR (UniProt Q9ULG1) | -0.0821 | 0.000184 |
| ILK_Q13418_422_VALEGLRPTIPPGISPHVCK (UniProt Q13418) | -0.0497 | -0.0569 |
| IGF2R_P11717_275_LDFCDGHSPAVTITFVCPSER (UniProt P11717) | 0.0215 | 0.173 |
| IGF2R_P11717_1461_YVDGDLCPDGIR (UniProt P11717) | -0.00683 | 0.0541 |
| HYOU1_Q9Y4L1_352_VTRVEFEELCADLFER (UniProt Q9Y4L1) | 0.0103 | 0.0224 |
| IGF2R_P11717_228_ACPPGTAACLVR (UniProt P11717) | 0.000279 | -0.0041 |
| IFI16_Q16666_191_CQVTPR (UniProt Q16666) | -0.0377 | -0.11 |
| IMMT_Q16891_697_LLSYASYCIEHGDLELAAK (UniProt Q16891) | 0.348 | 0.0287 |
| ILF3_Q12906_116_GDLDLELVLLCK (UniProt Q12906) | -0.0308 | 0.0695 |
| IDE_P14735_171+178_FAQFFLCPLFDESCK (UniProt P14735) | -0.0754 | -0.153 |
| IKBKB_O14920_464_NNSCLSK (UniProt O14920) | -0.0606 | -0.138 |
| ILVBL_A1L0T0_608_VLHDAQQQCR (UniProt A1L0T0) | -0.00491 | -0.0121 |
| INPP5B_P32019_129_ACPGFDSATR (UniProt P32019) | 0.0835 | 0.0482 |
| IGF2R_P11717_1839_TYSVGVCTFAVGPEQGGCK (UniProt P11717) | -0.0521 | 0.0858 |
| IDH3A_P50213_359_CSDFTEEICR (UniProt P50213) | -0.0208 | 0.0507 |
| IARS2_Q9NSE4_1002_YTAESSDTLCPR (UniProt Q9NSE4) | 0.0593 | 0.0556 |
| HUWE1_Q7Z6Z7_19_KTPTEAPADCR (UniProt Q7Z6Z7) | 0.0548 | -0.157 |
| IMPA2_O14732_90+107_CVLTHSPTWIIDPIDGTCNFVHR (UniProt O14732) | 0.0622 | -0.0767 |
| IMPDH2_P12268_140_HGFCGIPITDTGR (UniProt P12268) | 0.0941 | 0.0676 |

| Target | probe-labelled cysteine peptide fold change (10 µM) | probe-labelled cysteine peptide fold change (50 µM) |
| --- | --- | --- |
| HUWE1_Q7Z6Z7_2666_VLDAESMHDCVSVVK (UniProt Q7Z6Z7) | -0.035 | -0.0406 |
| IFI16_Q16666_351+356_MDVVGTGQCHNIPCEEGDK (UniProt Q16666) | 0.083 | -0.317 |
| IGF2R_P11717_288_EEAGKLDFCDGHSPAVTITFVCPSER (UniProt P11717) | -0.0837 | 0.0263 |
| ILK_Q13418_8_MDDIFTQCR (UniProt Q13418) | -0.161 | -0.0863 |
| ILKAP_Q9H0C8_190_CLLDTFK (UniProt Q9H0C8) | -0.0317 | 0.0241 |
| IDI1_Q13907_39_NCHLNENIEK (UniProt Q13907) | 0.0227 | -0.0977 |
| HUWE1_Q7Z6Z7_3635_HLGYTLCK (UniProt Q7Z6Z7) | -0.0958 | -0.0193 |
| IKBKG_Q9Y6K9_95_EFLMCK (UniProt Q9Y6K9) | -0.0456 | -0.0957 |
| HUWE1_Q7Z6Z7_4099_VTYTINPSSHCNPNHLSYFK (UniProt Q7Z6Z7) | 0.423 | -0.332 |
| HYI_Q5T013_102_ALGCPR (UniProt Q5T013) | -0.048 | 0.0102 |
| HTT_P42858_636_NMSHCR (UniProt P42858) | -0.11 | -0.24 |
| HUWE1_Q7Z6Z7_3658_RAQCETLSPDGLPEEQPQTTK (UniProt Q7Z6Z7) | -0.164 | -0.175 |
| INPP4A_Q96PE3_540_SLECIIQR (UniProt Q96PE3) | 0.0194 | 0.0354 |
| ILF3_Q12906_278_VLECLASGIVMPDGSGIYDPCEK (UniProt Q12906) | 0.108 | -0.0629 |
| HUWE1_Q7Z6Z7_183_ENGFGLAECCR (UniProt Q7Z6Z7) | -0.0934 | -0.00261 |
| ILK_Q13418_346_FSFQCPGR (UniProt Q13418) | 0.00155 | -0.0756 |
| IGFBP4_P22692_215_QCHPALDGQR (UniProt P22692) | -0.127 | -0.418 |
| IMPA2_O14732_107_CVLTHSPTWIIDPIDGTCNFVHR (UniProt O14732) | -0.106 | -0.116 |
| ING2_Q9H160_34_LLTCYVQDYLECVESLPHDMQR (UniProt Q9H160) | -0.0647 | -0.31 |
| HUWE1_Q7Z6Z7_3372_ACSPCSSQSSSSGICTDFWDLLVK (UniProt Q7Z6Z7) | -0.0349 | -0.0747 |

Given in CSV form: entries from further up.
Target,probe-labelled cysteine peptide fold change (10 µM),probe-labelled cysteine peptide fold change (50 µM)
ILK_Q13418_8_MDDIFTQCR (UniProt Q13418),-0.161,-0.0863
ILKAP_Q9H0C8_190_CLLDTFK (UniProt Q9H0C8),-0.0317,0.0241
IDI1_Q13907_39_NCHLNENIEK (UniProt Q13907),0.0227,-0.0977
HUWE1_Q7Z6Z7_3635_HLGYTLCK (UniProt Q7Z6Z7),-0.0958,-0.0193
IKBKG_Q9Y6K9_95_EFLMCK (UniProt Q9Y6K9),-0.0456,-0.0957
HUWE1_Q7Z6Z7_4099_VTYTINPSSHCNPNHLSYFK (UniProt Q7Z6Z7),0.423,-0.332
HYI_Q5T013_102_ALGCPR (UniProt Q5T013),-0.048,0.0102
HTT_P42858_636_NMSHCR (UniProt P42858),-0.11,-0.24
HUWE1_Q7Z6Z7_3658_RAQCETLSPDGLPEEQPQTTK (UniProt Q7Z6Z7),-0.164,-0.175
INPP4A_Q96PE3_540_SLECIIQR (UniProt Q96PE3),0.0194,0.0354
ILF3_Q12906_278_VLECLASGIVMPDGSGIYDPCEK (UniProt Q12906),0.108,-0.0629
HUWE1_Q7Z6Z7_183_ENGFGLAECCR (UniProt Q7Z6Z7),-0.0934,-0.00261
